{
  "sequences": {"note": "Sequences of proteins named here, by UniProt entry; tags and fusion partners are left off. A change or cut given only in a name is not applied to a line headed by its entry.", "UniProt P52888, whole entry, looked up": "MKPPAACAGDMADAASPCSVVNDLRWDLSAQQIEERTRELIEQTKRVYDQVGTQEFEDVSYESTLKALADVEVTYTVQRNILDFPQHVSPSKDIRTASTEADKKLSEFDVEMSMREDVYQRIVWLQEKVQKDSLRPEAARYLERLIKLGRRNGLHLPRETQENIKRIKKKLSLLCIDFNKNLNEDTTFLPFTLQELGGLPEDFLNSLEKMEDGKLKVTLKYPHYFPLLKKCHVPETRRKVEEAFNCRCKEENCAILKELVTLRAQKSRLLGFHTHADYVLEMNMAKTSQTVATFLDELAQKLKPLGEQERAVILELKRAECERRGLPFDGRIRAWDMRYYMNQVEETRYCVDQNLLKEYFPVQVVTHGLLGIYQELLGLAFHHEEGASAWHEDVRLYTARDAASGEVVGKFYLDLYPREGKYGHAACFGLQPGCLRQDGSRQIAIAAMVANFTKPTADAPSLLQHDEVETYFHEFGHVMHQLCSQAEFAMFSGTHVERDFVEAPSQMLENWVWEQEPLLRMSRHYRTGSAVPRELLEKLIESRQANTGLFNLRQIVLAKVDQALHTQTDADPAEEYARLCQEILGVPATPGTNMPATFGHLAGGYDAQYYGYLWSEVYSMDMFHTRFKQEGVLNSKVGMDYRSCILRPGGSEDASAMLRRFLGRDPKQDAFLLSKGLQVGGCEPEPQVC", "UniProt Q9Y5J7": "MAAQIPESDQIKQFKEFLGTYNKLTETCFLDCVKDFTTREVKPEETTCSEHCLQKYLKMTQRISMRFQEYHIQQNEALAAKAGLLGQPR", "UniProt P15923": "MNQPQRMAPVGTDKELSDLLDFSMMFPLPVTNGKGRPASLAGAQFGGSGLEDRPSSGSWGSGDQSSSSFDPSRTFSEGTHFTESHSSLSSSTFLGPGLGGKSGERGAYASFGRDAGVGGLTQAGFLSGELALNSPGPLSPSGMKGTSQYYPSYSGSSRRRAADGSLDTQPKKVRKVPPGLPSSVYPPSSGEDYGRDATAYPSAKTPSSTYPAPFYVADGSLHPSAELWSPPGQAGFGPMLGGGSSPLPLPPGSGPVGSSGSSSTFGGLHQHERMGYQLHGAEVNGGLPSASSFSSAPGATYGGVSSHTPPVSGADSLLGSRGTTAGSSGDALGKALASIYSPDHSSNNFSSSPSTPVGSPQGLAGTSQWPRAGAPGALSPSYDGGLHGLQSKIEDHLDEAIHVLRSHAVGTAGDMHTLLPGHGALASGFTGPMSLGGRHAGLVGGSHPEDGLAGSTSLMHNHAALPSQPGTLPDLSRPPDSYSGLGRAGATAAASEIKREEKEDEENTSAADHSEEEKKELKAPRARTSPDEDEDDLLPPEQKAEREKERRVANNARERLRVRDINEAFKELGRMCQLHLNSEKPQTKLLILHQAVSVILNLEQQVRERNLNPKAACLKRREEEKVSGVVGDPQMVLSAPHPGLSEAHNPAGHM", "UniProt P62072": "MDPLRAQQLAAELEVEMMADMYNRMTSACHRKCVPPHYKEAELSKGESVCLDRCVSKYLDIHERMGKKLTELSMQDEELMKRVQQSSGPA", "UniProt O60220": "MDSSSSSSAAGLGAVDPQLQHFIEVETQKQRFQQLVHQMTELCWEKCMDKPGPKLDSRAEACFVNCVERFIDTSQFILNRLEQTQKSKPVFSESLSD", "UniProt Q9H5Q4": "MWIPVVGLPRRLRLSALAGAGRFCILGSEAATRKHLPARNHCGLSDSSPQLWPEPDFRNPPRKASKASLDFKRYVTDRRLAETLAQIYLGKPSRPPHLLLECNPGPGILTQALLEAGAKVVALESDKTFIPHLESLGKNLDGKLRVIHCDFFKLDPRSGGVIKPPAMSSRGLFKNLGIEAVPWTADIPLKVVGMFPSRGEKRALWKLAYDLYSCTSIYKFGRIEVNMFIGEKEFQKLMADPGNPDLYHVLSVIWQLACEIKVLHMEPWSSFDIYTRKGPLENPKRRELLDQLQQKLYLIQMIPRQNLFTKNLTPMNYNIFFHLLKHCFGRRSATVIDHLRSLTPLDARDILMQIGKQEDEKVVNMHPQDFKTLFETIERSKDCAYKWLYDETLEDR", "UniProt Q99595": "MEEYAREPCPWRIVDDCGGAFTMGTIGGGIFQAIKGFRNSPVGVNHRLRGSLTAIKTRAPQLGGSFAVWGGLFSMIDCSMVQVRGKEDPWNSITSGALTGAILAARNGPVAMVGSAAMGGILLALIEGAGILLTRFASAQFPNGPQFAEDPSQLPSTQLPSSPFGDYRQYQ", "UniProt P02786, whole entry, looked up": "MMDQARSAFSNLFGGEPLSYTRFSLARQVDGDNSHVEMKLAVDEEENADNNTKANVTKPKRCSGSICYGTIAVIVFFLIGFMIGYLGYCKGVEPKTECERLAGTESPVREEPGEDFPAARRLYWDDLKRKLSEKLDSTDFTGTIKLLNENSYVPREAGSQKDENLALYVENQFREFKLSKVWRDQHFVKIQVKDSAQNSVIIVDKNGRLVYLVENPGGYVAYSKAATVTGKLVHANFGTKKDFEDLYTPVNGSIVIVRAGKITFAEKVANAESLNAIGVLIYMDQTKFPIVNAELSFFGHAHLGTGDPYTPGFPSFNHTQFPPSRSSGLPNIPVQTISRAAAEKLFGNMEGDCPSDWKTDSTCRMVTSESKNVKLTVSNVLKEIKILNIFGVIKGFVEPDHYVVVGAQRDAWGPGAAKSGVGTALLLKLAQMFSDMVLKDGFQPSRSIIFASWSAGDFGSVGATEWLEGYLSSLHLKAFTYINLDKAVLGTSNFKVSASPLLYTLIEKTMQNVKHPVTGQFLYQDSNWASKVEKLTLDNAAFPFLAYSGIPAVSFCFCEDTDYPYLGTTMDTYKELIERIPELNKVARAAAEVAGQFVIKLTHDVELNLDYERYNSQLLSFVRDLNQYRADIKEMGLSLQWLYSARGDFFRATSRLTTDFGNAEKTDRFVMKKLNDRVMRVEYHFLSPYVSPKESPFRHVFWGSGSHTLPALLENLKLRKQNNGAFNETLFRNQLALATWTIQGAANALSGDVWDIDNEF", "UniProt Q9Y4R8, whole entry, looked up": "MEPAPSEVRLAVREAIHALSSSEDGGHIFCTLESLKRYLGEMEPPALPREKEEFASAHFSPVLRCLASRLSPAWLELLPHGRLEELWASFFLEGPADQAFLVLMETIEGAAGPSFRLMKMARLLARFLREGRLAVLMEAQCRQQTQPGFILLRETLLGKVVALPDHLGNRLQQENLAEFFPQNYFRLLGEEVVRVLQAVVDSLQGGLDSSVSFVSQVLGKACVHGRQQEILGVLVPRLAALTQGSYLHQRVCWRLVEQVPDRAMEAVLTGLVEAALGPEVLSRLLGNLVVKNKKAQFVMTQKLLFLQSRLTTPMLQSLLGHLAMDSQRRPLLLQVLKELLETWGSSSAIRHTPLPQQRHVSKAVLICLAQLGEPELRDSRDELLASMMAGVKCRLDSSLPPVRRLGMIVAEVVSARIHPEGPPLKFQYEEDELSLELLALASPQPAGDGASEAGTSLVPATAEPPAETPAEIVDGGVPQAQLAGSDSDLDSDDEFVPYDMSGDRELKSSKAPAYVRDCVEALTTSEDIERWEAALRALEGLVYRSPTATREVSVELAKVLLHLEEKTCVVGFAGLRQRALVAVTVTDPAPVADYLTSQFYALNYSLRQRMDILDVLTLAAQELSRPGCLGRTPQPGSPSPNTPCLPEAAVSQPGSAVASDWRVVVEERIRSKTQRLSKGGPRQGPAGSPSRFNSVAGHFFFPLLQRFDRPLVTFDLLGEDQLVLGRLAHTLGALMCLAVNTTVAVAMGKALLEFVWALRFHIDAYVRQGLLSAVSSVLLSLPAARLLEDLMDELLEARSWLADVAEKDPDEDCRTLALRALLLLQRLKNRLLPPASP", "UniProt O75347": "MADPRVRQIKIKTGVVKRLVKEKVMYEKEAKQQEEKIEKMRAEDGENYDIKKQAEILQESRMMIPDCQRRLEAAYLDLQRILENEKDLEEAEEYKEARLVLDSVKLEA", "UniProt Q04726": "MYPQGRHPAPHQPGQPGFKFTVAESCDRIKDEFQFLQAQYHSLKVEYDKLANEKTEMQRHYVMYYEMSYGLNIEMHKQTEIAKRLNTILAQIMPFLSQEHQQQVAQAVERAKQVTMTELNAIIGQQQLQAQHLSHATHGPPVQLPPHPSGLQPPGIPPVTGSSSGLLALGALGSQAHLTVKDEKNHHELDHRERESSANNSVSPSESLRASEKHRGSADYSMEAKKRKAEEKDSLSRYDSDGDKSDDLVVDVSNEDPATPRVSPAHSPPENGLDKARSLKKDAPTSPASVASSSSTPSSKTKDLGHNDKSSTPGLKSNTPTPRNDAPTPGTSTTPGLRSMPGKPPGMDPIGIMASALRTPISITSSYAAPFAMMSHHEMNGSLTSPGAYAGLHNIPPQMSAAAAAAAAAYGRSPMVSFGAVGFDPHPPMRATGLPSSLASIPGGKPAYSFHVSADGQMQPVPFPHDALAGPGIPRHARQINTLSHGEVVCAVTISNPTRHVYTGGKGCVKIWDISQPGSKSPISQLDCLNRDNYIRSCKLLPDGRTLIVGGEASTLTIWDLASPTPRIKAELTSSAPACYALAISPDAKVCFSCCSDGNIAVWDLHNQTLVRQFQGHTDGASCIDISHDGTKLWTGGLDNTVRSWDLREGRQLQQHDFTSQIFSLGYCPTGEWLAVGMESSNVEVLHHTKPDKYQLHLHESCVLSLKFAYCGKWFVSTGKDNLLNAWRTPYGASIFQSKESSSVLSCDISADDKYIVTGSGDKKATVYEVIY", "UniProt Q9Y584": "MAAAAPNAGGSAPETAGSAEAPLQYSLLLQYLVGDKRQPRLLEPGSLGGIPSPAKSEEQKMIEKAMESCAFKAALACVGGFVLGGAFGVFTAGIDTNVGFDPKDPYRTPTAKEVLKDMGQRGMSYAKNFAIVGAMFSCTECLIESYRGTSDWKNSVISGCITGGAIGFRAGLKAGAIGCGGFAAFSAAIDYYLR", "UniProt Q86XR7, whole entry, looked up": "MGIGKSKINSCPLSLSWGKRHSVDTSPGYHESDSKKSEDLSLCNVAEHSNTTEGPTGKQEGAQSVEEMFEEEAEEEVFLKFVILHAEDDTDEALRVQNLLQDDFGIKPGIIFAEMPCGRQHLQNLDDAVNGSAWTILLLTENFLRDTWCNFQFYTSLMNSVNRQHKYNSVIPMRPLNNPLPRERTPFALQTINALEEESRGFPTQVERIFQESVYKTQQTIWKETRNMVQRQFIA", "UniProt Q9Y5L4": "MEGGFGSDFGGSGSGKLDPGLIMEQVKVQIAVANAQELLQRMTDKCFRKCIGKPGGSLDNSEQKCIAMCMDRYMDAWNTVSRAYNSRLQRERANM", "UniProt P02787, whole entry, looked up": "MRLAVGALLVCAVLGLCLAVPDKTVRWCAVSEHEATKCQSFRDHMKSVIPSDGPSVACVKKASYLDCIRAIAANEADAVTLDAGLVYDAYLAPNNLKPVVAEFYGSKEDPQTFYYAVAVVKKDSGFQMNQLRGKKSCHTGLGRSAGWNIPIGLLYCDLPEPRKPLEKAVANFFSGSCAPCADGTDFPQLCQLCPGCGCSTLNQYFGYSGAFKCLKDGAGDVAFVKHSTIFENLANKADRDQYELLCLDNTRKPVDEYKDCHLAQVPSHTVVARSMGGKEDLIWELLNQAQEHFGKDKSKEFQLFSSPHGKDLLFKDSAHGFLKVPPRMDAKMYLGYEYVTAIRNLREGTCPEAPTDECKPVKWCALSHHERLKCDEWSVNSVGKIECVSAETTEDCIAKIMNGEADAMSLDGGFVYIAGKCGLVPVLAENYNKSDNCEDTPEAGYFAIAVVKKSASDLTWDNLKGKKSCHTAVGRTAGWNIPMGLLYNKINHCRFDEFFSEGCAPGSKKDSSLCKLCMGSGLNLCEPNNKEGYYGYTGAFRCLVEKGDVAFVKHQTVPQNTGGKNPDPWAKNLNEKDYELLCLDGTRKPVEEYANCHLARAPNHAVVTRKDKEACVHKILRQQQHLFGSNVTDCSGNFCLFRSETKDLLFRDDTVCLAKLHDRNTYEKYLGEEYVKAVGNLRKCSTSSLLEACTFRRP", "UniProt Q13769": "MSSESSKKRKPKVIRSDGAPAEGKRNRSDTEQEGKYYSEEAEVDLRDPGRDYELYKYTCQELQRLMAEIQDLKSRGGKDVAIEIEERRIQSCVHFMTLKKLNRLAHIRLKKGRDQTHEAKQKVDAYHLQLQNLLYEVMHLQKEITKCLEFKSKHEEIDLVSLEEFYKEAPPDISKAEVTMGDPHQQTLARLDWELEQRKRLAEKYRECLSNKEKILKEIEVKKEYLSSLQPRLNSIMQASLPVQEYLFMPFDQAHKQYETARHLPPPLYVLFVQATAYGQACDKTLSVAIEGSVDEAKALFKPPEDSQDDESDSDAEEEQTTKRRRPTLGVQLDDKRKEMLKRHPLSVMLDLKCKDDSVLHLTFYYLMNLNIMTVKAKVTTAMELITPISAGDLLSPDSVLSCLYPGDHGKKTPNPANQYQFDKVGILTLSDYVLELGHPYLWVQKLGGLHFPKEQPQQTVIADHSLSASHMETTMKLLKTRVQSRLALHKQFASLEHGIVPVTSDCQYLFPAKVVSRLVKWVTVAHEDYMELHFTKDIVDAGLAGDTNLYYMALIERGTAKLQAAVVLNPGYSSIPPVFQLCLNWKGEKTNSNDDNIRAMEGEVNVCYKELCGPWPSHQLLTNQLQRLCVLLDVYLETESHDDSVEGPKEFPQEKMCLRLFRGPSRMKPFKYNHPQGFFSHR"},
  "source": "the supplement of paper PMC10849652",
  "note": "This is one part of the list.",
  "data": [
    {"compound": "CS(=O)(=O)c1ccc(-c2cnc(N)c(C(=O)Nc3ccccc3)n2)cc1", "test": "log2 fold change, soluble protein after heating vs DMSO (PISA); higher = thermal stabilisation; K562 cells, 10 uM, 30 min; active = over 0.2 and 3.5 SD of the protein, either way, in both replicates (recomputed)", "summary_of_the_method": "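K562 cells at 2×10^6 cells/mL were treated with 10 μM compound for 30 min. Aliquots were heated for 3 min across 48°C-58°C, pooled, and extracted in PBS with 0.5% NP-40 at 4°C; soluble protein was the supernatant after 21,000xg for 90 min. Soluble protein was quantified by TMTpro 16plex LC-MS/MS with channel sums equalised, and reported as log2 fold change in thermal stability against DMSO controls, with values from duplicates.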", "values": [
      {"target": "TEX264 (UniProt Q9Y6I9)", "log2 fold change": "inactive: 0.361"},
      {"target": "THOP1 (UniProt P52888)", "log2 fold change": "inactive: -0.003"},
      {"target": "TGFBRAP1 (UniProt Q8WUH2)", "log2 fold change": "inactive: -0.081"},
      {"target": "TIMM9 (UniProt Q9Y5J7)", "log2 fold change": "inactive: -0.066"},
      {"target": "TCF3 (UniProt P15923)", "log2 fold change": "inactive: -0.041"},
      {"target": "TIMM10 (UniProt P62072)", "log2 fold change": "inactive: -0.035"},
      {"target": "TFR2 (UniProt Q9UP52)", "log2 fold change": "inactive: 0.068"},
      {"target": "TBL1XR1 (UniProt Q9BZK7)", "log2 fold change": "inactive: -0.001"},
      {"target": "TBC1D9B (UniProt Q66K14)", "log2 fold change": "inactive: 0.041"},
      {"target": "TKFC (UniProt Q3LXA3)", "log2 fold change": "inactive: 0.018"},
      {"target": "TGFBR1 isoform 2 (UniProt P36897)", "log2 fold change": "active: 0.254"},
      {"target": "TCOF1 isoform 4 (UniProt Q13428)", "log2 fold change": "inactive: -0.008"},
      {"target": "TIMM8A (UniProt O60220)", "log2 fold change": "inactive: -0.036"},
      {"target": "THUMPD2 (UniProt Q9BTF0)", "log2 fold change": "inactive: 0.018"},
      {"target": "TFB2M (UniProt Q9H5Q4)", "log2 fold change": "inactive: -0.013"},
      {"target": "TIMM17A (UniProt Q99595)", "log2 fold change": "inactive: 0.009"},
      {"target": "TFRC (UniProt P02786)", "log2 fold change": "inactive: 0.026"},
      {"target": "THG1L (UniProt Q9NWX6)", "log2 fold change": "inactive: 0.018"},
      {"target": "TBCC (UniProt Q15814)", "log2 fold change": "inactive: -0.018"},
      {"target": "TES (UniProt Q9UGI8)", "log2 fold change": "inactive: 0.033"},
      {"target": "TELO2 (UniProt Q9Y4R8)", "log2 fold change": "inactive: -0.022"},
      {"target": "TBCA (UniProt O75347)", "log2 fold change": "inactive: -0.002"},
      {"target": "TBC1D4 (UniProt O60343)", "log2 fold change": "inactive: 0.034"},
      {"target": "TIAL1 isoform 2 (UniProt Q01085)", "log2 fold change": "inactive: 0.008"},
      {"target": "TLE3 isoform 4 (UniProt Q04726)", "log2 fold change": "inactive: -0.022"},
      {"target": "TGM2 (UniProt P21980)", "log2 fold change": "inactive: 0.042"},
      {"target": "TGFB1 (UniProt P01137)", "log2 fold change": "inactive: -0.037"},
      {"target": "TDP2 isoform 2 (UniProt O95551)", "log2 fold change": "inactive: 0.001"},
      {"target": "TECR (UniProt Q9NZ01)", "log2 fold change": "inactive: -0.002"},
      {"target": "TIMM22 (UniProt Q9Y584)", "log2 fold change": "inactive: 0.127"},
      {"target": "THBS4 (UniProt P35443)", "log2 fold change": "inactive: -0.028"},
      {"target": "TERF2 (UniProt Q15554)", "log2 fold change": "inactive: -0.017"},
      {"target": "TICAM2 isoform 2 (UniProt Q86XR7)", "log2 fold change": "inactive: 0.008"},
      {"target": "TIMM13 (UniProt Q9Y5L4)", "log2 fold change": "inactive: -0.047"},
      {"target": "TBL1X (UniProt O60907)", "log2 fold change": "inactive: -0.026"},
      {"target": "TF (UniProt P02787)", "log2 fold change": "inactive: -0.213"},
      {"target": "THOC5 (UniProt Q13769)", "log2 fold change": "inactive: 0.008"},
      {"target": "TBC1D15 isoform 3 (UniProt Q8TC07)", "log2 fold change": "inactive: -0.012"},
      {"target": "TESC (UniProt Q96BS2)", "log2 fold change": "inactive: -0.004"},
      {"target": "TCERG1 (UniProt O14776)", "log2 fold change": "inactive: 0.079"}
    ]}
  ]
}
